The record followed here is PubChem BioAssay AID493014 (National Center for Advancing Translational Sciences (NCATS), 2011).

This is one part of the list. These are further read-outs of the screen, such as a control signal, another cell line or another target. No call is given for them. Most of these compounds were active or inconclusive in the main read-out, so they are no random draw. Words in brackets tell the shape of the fitted curve; partial curves, single points and poor fits give uncertain potencies.

A short description of this test: qHTS Assay to Find Inhibitors of Chronic Active B-Cell Receptor Signaling. The conditions noted are these: ABC-DLBCL IkBa-CBG/CBR reporter, luminescence ratio (green luciferase fused to IkBa over red control in TMD8 lymphoma cells), 4 h. The essentials: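 TMD8 ABC-DLBCL cells carrying doxycycline-inducible green luciferase fused to IkappaBalpha plus unfused red luciferase were exposed to compounds (up to 46 uM) for 4 hrs at 37C. Activity came from the overlap-corrected green/red luminescence ratio.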
(In general: Quantitative high-throughput screening tests each substance at several concentrations.)

The mark [1] stands for this setting: measured here: CBR red luminescence, cell number.
Where [2] appears, read: measured here: IkBa-CBG green luminescence.

As to `CC(c1nc2ccccc2n1Cc1ccccc1)N1CCCCC1` (stereo not drawn), the concentration at half-maximal activity (AC50) under setting [1] is 2.51 µM [falling, full curve, poor fit].

`COc1ccccc1NC(=O)c1ccc(Cl)c(S(=O)(=O)NCc2ccco2)c1`: the AC50 under setting [1] is 16.4 µM [rising, partial curve]. Still for that read-out and setting: with `COCCn1c(C)cc(C(=O)COC(=O)C2CC(=O)N(CCc3ccc(OC)c(OC)c3)C2)c1C` (stereo not drawn) the figure was 1.46 µM [rising, full curve]; with `O=c1c2ccccc2[nH]c(=S)n1CCCN1CCC(Cc2ccccc2)CC1`, 35.5 µM [falling, single point].

`O=S(=O)(NCc1ccc(F)cc1)c1ccccc1Br`: the half-maximal activity concentration (AC50) under setting [1] was 0.259 µM [rising, full curve, poor fit]. `N#CC1=C(N)Oc2n[nH]c(-c3cccnc3)c2C1c1ccc([N+](=O)[O-])o1` (stereo not drawn): the AC50 was 15.8 µM [falling, single point] under setting [1] and 17.8 µM [rising, partial curve, poor fit] under setting [2]. For `O=C(NC1CCCCC1)C(c1ccncc1)N(C(=O)c1ccco1)c1ccc(F)cc1` (stereo not drawn), the concentration at half-maximal activity (AC50) under setting [1] is 11.2 µM [falling, partial curve, poor fit]. Regarding `COc1ccc(OC)c(CNC(=O)c2ccc(Sc3ccc(C)cc3)c(N)c2)c1`, the AC50 under setting [1] was 0.794 µM [falling, partial curve, poor fit]. Still for that read-out and setting: with `CS(=O)(=O)c1ccc(Cl)c(NC(=O)C2CCN(S(=O)(=O)c3cccs3)CC2)c1` the figure was 29.1 µM [falling, partial curve, poor fit]. For the compound `Cc1ccc(NCc2nc3ccccc3n2C)cc1`, the half-maximal activity concentration (AC50) under setting [1] was 0.116 µM [rising, full curve, poor fit].

Take `CC(C)(C)OC(=O)CNC(=O)c1[nH]cnc1C(=O)Nc1ccc(CNC(=O)OC(C)(C)C)cc1`: the concentration at half-maximal activity (AC50) under setting [1] is 3.98 µM [rising, partial curve, poor fit].

For `COc1cccc(C(=O)CSc2nnc(-c3cccs3)o2)c1`, the AC50 under setting [1] is 3.66 µM [falling, partial curve, poor fit]. Regarding `COc1ccc(OC)c(C(=O)COC(=O)CNC(=O)c2ccccc2)c1`, under setting [1], the AC50 was 23.1 µM [rising, partial curve, poor fit]. Still for that read-out and setting: the same measure for `CCN(C(=O)c1ccco1)c1nc(-c2ccc(OC)cc2)cs1`: 2.82 µM [rising, full curve, poor fit]; for `CC(C)c1nc(SCC(=O)NCC2CCCO2)c2c(=O)n(C)c(=O)n(C)c2n1` (stereo not drawn): 17.8 µM [rising, partial curve, poor fit]. With `C#CCOCCOCCOCCNc1nc(N2CCN(C(=O)CCCCCCCCCCNC(=O)[C@H](CCCCN)n3cc(C)nn3)CC2)nc(N2CCN(C(=O)CCCCCCCCCCNC(=O)[C@H](CO)n3cc(CCCSC)nn3)CC2)n1`, the AC50 under setting [1] is 3.26 µM [rising, partial curve, poor fit]. On the same count and under the same terms, the same measure for `COC(=O)COc1ccc(S(=O)(=O)NCc2ccco2)cc1`: 6.51 µM [falling, single point]; for `Cc1ccc(C(=O)Nc2cc3c(cc2C)n(C)c(=O)c(=O)n3C)cc1`: 14.1 µM [falling, single point]. As for `COc1c(/C=N/NC(=O)c2ccncc2)c(CCN(C)C(C)=O)cc2c1OCO2`, the concentration at half-maximal activity (AC50) under setting [1] is 35.5 µM [falling, single point]. Same read-out and setting: the same measure for `Cc1cc(C)n(-c2ccc(C(=O)OCC(=O)Nc3ccc(S(=O)(=O)N4CCOCC4)cc3)cc2)n1`: 14.1 µM [rising, partial curve, poor fit]. Turning to `O=C(CN1N=C(c2ccc(Cl)cc2)CCC1=O)NCCc1ccc(Cl)cc1`, the AC50 under setting [1] was 35.5 µM [falling, single point].

As for `C=CCN1C(=O)[C@H]2CCC=C[C@H]2[C@@H]1c1cccc(C)c1`, under setting [1], the AC50 is 29.1 µM [rising, single point]. Same read-out and setting: with `COC(=O)c1c(CSc2ccc(C)c(C)c2)noc1C(=O)NCc1ccc(OC)cc1` the figure was 2 µM [rising, full curve, poor fit]; with `O=C(NCC1CCCO1)C1CCCN1C(=O)Nc1ccc(Cl)cc1` (stereo not drawn), 31.6 µM [rising, single point]. The same measure, in the same setting: the same measure for `Cc1c(C(=O)N2CCN(Cc3ccc4c(c3)OCO4)CC2)sc2ncnc(N3CCN(c4ccccc4F)CC3)c12`: 12.6 µM [falling, partial curve]; for `COC(=O)c1ccc(/C=N/OCC(=O)NCCc2ccc(OC)c(OC)c2)cc1`: 15.8 µM [rising, partial curve, poor fit]; for `CC/C(=N\NC(=O)C1CC1)c1cccc(Cl)c1`: 8.91 µM [rising, partial curve, poor fit]. On the same count and under the same terms, the same measure for `O=C(c1cccs1)N(C(=O)c1cccs1)c1ccc(Br)cn1`: 5.8 µM [falling, full curve, poor fit].

Regarding `Cc1ccc(S(=O)(=O)c2nc(S(C)(=O)=O)sc2N2CCCCC2C)cc1` (stereo not drawn), the concentration at half-maximal activity (AC50) under setting [1] was 17.8 µM [falling, partial curve]. Still for that read-out and setting: with `CC(=O)Nc1ccc(-c2csc(NC(=O)Nc3ccccc3)n2)cc1` the figure was 35.5 µM [falling, single point]; with `CSc1ccccc1C(=O)Nc1nc2ccccc2c(=O)[nH]1`, 0.501 µM [falling, full curve].

For the compound `O=c1cc(COc2ccc(Cl)c(Cl)c2)nc2sccn12`, the AC50 under setting [1] was 5.01 µM [rising, full curve, poor fit].

For `CCc1cccc(CC)c1NC(=O)CN1CCN(S(=O)(=O)c2ccccc2)CC1`, the AC50 under setting [1] was 0.0891 µM [falling, full curve, poor fit]. Regarding `O=C(Nc1ccc(N2CCN(C(=O)c3ccccc3)CC2)c(Cl)c1)c1ccc(Br)o1`, the concentration at half-maximal activity (AC50) under setting [1] was 17.8 µM [falling, single point].

Take `Cc1sc(NC(=O)c2cc(-c3ccccc3)nc3ccccc23)c(C(N)=O)c1C`: the AC50 under setting [1] was 18.4 µM [falling, partial curve, poor fit]. Take `Cc1cc(C(=O)C(C)Sc2cccc[n+]2[O-])c(C)n1-c1ccc(Cl)cc1` (stereo not drawn): the concentration at half-maximal activity (AC50) is, setting by setting: under setting [1], 11.2 µM [falling, partial curve, poor fit]; under setting [2], 35.5 µM [falling, single point]. Turning to `CCOc1ccc(NC(=O)CC2SC(=O)N(c3ccccc3)C2=O)cc1` (stereo not drawn), the AC50 under setting [1] was 22.4 µM [falling, partial curve, poor fit]. Still for that read-out and setting: with `O=C(Nc1ccc2oc(=O)ccc2c1)c1ccccc1[N+](=O)[O-]` the figure was 7.94 µM [falling, partial curve, poor fit]; with `S=C(Nc1ccccc1)N1CCN(C2CCCCC2)CC1`, 23.1 µM [rising, partial curve]; with `CC(C)N1C(=O)C2ON(c3ccccc3)C(c3cccs3)C2C1=O` (stereo not drawn), 6.51 µM [falling, single point].

Regarding `O=C(c1ccccc1OCc1ccccc1Br)N1CCN(c2ncccn2)CC1`, the concentration at half-maximal activity (AC50) under setting [1] is 20 µM [falling, single point]. Same read-out and setting: the same measure for `Cn1cc(C(=O)Nc2ccc3c(c2)CCC3)cn1`: 7.31 µM [rising, partial curve]; for `O=C(NCCC(=O)N1CCNC1=O)OCc1ccccc1`: 23.1 µM [falling, single point]; for `Cc1cc(C)c2c(N)c(C(=O)N3CCN(c4ncccn4)CC3)sc2n1`: 6.51 µM [rising, partial curve]. Still for that read-out and setting: with `Cc1cc(Cl)c2oc(C(=O)N3CCN(C4CCS(=O)(=O)C4)CC3)c(C)c2c1` (stereo not drawn) the figure was 15.8 µM [rising, partial curve, poor fit]; with `COc1ccccc1Cn1c(=S)[nH]c2ccc(Br)cc2c1=O`, 0.1 µM [rising, full curve, poor fit]; with `Cc1cc(O)c(C(=O)Cc2csc(C)n2)c(O)c1`, 15.8 µM [falling, single point]. Take `O=C(CNC(=S)N(Cc1ccccc1)Cc1ccccc1F)NCc1ccc(Cl)cc1`: the half-maximal activity concentration (AC50) under setting [1] is 35.5 µM [falling, single point]. Still for that read-out and setting: with `O=C(NCc1ccc2c(c1)CCO2)Nc1cccc(C(F)(F)F)c1` the figure was 35.5 µM [falling, single point].

Regarding `O=C(CCN1C(=O)/C(=C/c2ccc(F)cc2)SC1=S)Nc1cc([N+](=O)[O-])ccc1O`, the AC50 under setting [1] is 14.1 µM [falling, partial curve, poor fit]. The same measure, in the same setting: the same measure for `Nc1ccc2nc(-c3cccs3)[nH]c2c1`: 29.1 µM [falling, single point]; for `CC(=O)/C(=C/N(C)C)Sc1ccc(C)cc1`: 6.51 µM [rising, single point]. Still for that read-out and setting: the same measure for `Cc1c(Cl)ccc2c(C(=O)NC(C)c3ccncc3)cc(-c3ccncc3)nc12` (stereo not drawn): 35.5 µM [falling, single point]; for `Cn1c(=O)cc(OCCCC(=O)NC2CCCC2)c2ccccc21`: 2.51 µM [rising, full curve, poor fit]; for `CCc1ccc(CN2CCCC(C(=O)Nc3ccccc3-c3ccc(OC)cc3)C2)o1` (stereo not drawn): 22.4 µM [falling, single point]. As for `O=[N+]([O-])c1ccc(N2CCOCC2)cc1NCc1ccccc1`, the half-maximal activity concentration (AC50) under setting [1] is 20 µM [rising, single point]. Regarding `C/C(CC(=O)Nc1ccc2c(c1)OCCO2)=N\NC(=O)c1ccccc1F`, the AC50 under setting [1] is 17.8 µM [falling, partial curve, poor fit]. Regarding `COc1ccc(-c2nnc(SC(C(=O)c3c[nH]c4ccccc34)c3ccccc3)n2N)cc1OC` (stereo not drawn), under setting [1], the concentration at half-maximal activity (AC50) was 23.1 µM [falling, single point]. On the same count and under the same terms, with `Cc1cccc2cc(C#N)c(NCCNC(=S)NCCCN3CCOCC3)nc12` the figure was 32.6 µM [falling, single point]; with `O=C1Oc2ccccc2C(=O)/C1=C/c1ccccc1O`, 3.55 µM [falling, partial curve, poor fit]; with `O=C(O)c1cc([N+](=O)[O-])c(Nc2cccc3ccccc23)c([N+](=O)[O-])c1`, 0.708 µM [falling, full curve, poor fit].

Usually AC50 stands for the midpoint of the concentration-response curve, whichever way the signal moves.
